Measured values reported in US20220098290A1 (JUNTENDO EDUCATIONAL FOUNDATION, published 2022).
These are yes or no findings as the source states them, for the method shown. Some binding calls cover weakened binding; strength is not graded here.

Columns and labels:
[1] = biological target: Ins 5 type mutant CALR protein labeled with a FLAG-tag downstream of the signal sequence at the amino-terminal, on the surface of UT-7/TPO cells (human) (UniProt P27797); test: flow cytometry on UT-7/TPO cells
[2] = biological target: Del 52 type mutant CALR protein labeled with a FLAG-tag downstream of the signal sequence at the amino-terminal, on the surface of UT-7/TPO cells (human) (UniProt P27797); test: flow cytometry on UT-7/TPO cells
[3] = biological target: purified Del 52 type mutant CALR protein (human) (UniProt P27797); test: ELISA, antigen coated on the plate, 0-800 ng/mL antibody
[4] = biological target: Del 52 type mutant CALR protein having a FLAG-tag inserted downstream of the signal sequence at the amino-terminal, full-length type (human) (UniProt P27797); test: immunoblot of culture supernatant of UT-7/TPO cells
[5] = biological target: Ins 5 type mutant CALR protein having a FLAG-tag inserted downstream of the signal sequence at the amino-terminal, full-length type (human) (UniProt P27797); test: as above
[6] = biological target: Ins 5 type mutant CALR protein having a FLAG-tag inserted downstream of the signal sequence at the amino-terminal, cleavage type (human) (UniProt P27797); test: as above
[7] = biological target: Del 52 type mutant CALR protein having a FLAG-tag inserted downstream of the signal sequence at the amino-terminal, cleavage type (human) (UniProt P27797); test: as above

| binding [1] | binding [2] | binding [3] | binding [4] | binding [5] | binding [6] | binding [7] | Binder |
| --- | --- | --- | --- | --- | --- | --- | --- |
| binds | binds | binds | binds | binds | binds | binds | clone B3 antibody (antibody, V domains shown, Rat monoclonal antibody purified from a hybridoma (WKY/Izm rat x mouse SP2 myeloma), detected with anti-rat IgG; also called rat clone B3 antibody) VH: QVQLQQSGAELVKPGSSVKISCKASGYTFTRNFIHWIKQQPGNGLEWIGWIFPGDGDTEYNQKFNGKATLTADKSSSTAYMQLSSLTSEDSAVYFCARGNYNYEYFDYWGQGVMVTVSS VL: DIQMTQSPASLSASLGETVSIECLASEDIYSYLAWYQQKPGKSPQLLIFAANRLQDGVPSRFSGSGSGTQFSLKISGMQPEDEGDYFCLQGSKFPYTFGPGTKLELN |
| binds | binds | binds | binds | binds | binds | binds | clone C6 antibody (antibody, V domains shown, Rat monoclonal antibody purified from a hybridoma, detected with anti-rat IgG; also called rat clone C6 antibody) VH: QVQLQQSGAELVKPGSSVKISCKASGYTFTSYFVHWIKQQPGDGLEWIGWIYPGDGDTEYNHKFNGKSTLTADRSSSTAYMQLSSLTSEDSAVYFCARGNYYDGREVMDAWGQGASVTVSS VL: DVVLTQTPPTLSATIGQSVSISCRSSQSLLDSDGETYLNWLLQRPGQSPQLLIYSVSNLESGVPNRFSGSGSETDFTLKISGMEAEDLGVYYCMQATHGPYTFGAGTKLELK |
| binds | binds | binds | binds | binds | binds | binds | clone G1 antibody (antibody, V domains shown, Rat monoclonal antibody purified from a hybridoma, detected with anti-rat IgG; also called rat clone G1 antibody) VH: QVQLQQSGAELVKPGSSVKISCKASGYTFTSYFVHWIKQQPGDGLEWIGWIYPGDGDTEYNQKFNGKATLTADRSSSTAYMQLSSLTSEDSAVYFCARGNYYDGREVMDAWGQGASVTVSS VL: DVVLTQTPPTLSATIGQSVSISCRSSQSLLDSDGETYLNWLLQRPGQCPQLLIYSVSNLESGVPNRFSGSGSETDFTLKISGVEAEDLGVYYCMQGTHGPYTFGAGTKLELK |
